# Laboratory results as given in PubChem BioAssay AID1439 (NMMLSC, 2008).
# Amino acid sequences for entries named in this document (tags omitted).
# UniProt P09471, whole entry, looked up: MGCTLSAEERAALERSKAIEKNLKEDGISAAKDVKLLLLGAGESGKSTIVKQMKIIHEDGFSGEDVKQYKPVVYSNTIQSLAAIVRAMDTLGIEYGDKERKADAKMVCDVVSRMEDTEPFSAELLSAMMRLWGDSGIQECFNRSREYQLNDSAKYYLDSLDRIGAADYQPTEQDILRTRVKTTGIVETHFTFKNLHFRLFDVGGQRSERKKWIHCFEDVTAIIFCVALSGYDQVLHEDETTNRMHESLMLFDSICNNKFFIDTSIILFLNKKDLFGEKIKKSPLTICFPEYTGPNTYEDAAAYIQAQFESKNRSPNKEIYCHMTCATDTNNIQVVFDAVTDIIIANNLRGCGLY
# “And” between values parts separate entries of the source, which are not always exact repeats. Equal values may be shown once. Screen size: about 220,000 compounds; about 770 (0.35%) were called active. Inconclusive means that the source gave no clear call. Such entries were picked first, then a sample of the others. Cut-off read from the data, not from the text of the source: active = binding response below about 49% or above about 150%; inconclusive = no clear call, values can overlap the other calls; inactive = in between.
# Biological target: Guanine nucleotide-binding protein G(o) subunit alpha (Homo sapiens) (UniProt P09471)
# Assay: RGS7-Galphao binding modulators, primary screen, biochemical, multiplexed bead flow cytometry (AID 1439);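 note: fluorescent Galphao held in activated GDP-AlF4 state binding bead-coupled RGS7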
# Details: at 10 µM, actives lie on both sides
row,Structure (SMILES),binding response (% of control)
1,Cc1ccc(S(=O)(=O)N2CCOCC2)cc1C(=O)NC(=S)N1CC(C)CC(C)C1 (stereo not given),inconclusive: 69.3%
2,CC(C)OC(=O)/C(C#N)=C/c1cn(C)c2ccccc12,inconclusive: 48.9%
3,Fc1ccc(/C=N/N2CCOCC2)c(F)c1,inconclusive: 103%
4,O=C(Nc1ccc2oc(-c3ccncc3)nc2c1)c1ccc2c(c1)OCCO2,inconclusive: 63%
5,N/C(=N\N=C\c1cccs1)SC1CC(=O)N(c2cccc([N+](=O)[O-])c2)C1=O (stereo not given),inconclusive: 101%
6,Cc1ccccc1NC(=O)CN1C(=O)S/C(=C\c2ccc(-c3cc(C(=O)O)ccc3C)o2)C1=O,inconclusive: 106%
7,COc1ccc(/C=C/C(=O)Nc2ccccc2)cc1S(=O)(=O)N1CCOCC1,inconclusive: 141%
8,COc1ccc(N/C=C/c2nc(SC)nnc2C)cc1,inconclusive: 110%
9,O=C(NC(=S)Nc1ccc(Cc2ccncc2)cc1)c1ccc(F)cc1,inconclusive: 90.5%
10,CS/C(Nc1cc(Cl)ccc1Cl)=C(/C#N)C(=O)c1ccco1,inconclusive: -3.54%
11,CN(C1=NC(=O)CS1)c1ccc(O)cc1,inconclusive: 136%
12,COc1c(/C=N/NC(=O)[C@H]2C[C@@H]2c2ccccc2)c(CCN(C)C(C)=O)cc2c1OCO2,inconclusive: 70.9%
13,CC(=O)N1N=C(c2cccc([N+](=O)[O-])c2)OC1c1ccc(Br)cc1 (stereo not given),inconclusive: 87%
14,O=C1NCCN(Cc2cccc(Oc3ccccc3)c2)C1CC(=O)N1CCCO1 (stereo not given),inactive: 106%
15,O=C1c2cccc3cc([N+](=O)[O-])cc(c23)C(=O)N1/N=C/c1ccc(O)cc1O,inconclusive: 96%
16,Cc1ccc(NNC(=O)CCc2ccccc2)c(C)c1,inconclusive: 70.5%
17,Cc1ccc[n+](-c2nc3ccccc3nc2C(=C=[N-])C#N)c1,inactive: 103% and inconclusive: 19.1%
18,CCOC(=O)c1cnc2c(C)c(Cl)ccc2c1Nc1ccc(S(=O)(=O)Nc2ncccn2)cc1,inactive: 105%
19,CCOc1ccccc1NC(=O)CSc1nnc2ccc(-c3cccnc3)nn12,inconclusive: 105%
20,O=C(CN1C(=O)/C(=C/c2ccccc2F)Sc2ccccc21)N1CCN(c2ccccn2)CC1,inactive: 103%
21,NS(=O)(=O)c1cccc(NC(=O)c2cc(-c3cccs3)nc3ccccc23)c1,inconclusive: 120%
22,Cc1[nH]n(C)c(=O)c1C(=O)c1c(-c2c(Cl)cccc2Cl)noc1C,inconclusive: 17%
23,CCCN1C(=O)COc2ccc(-c3n[nH]c(=O)c4ccccc34)cc21,inactive: 83%
24,O=C(CN(Cc1ccco1)C(=O)Cn1nnc(-c2cccs2)n1)NCC1CCCO1 (stereo not given),inactive: 100%
25,O=C(Nc1ccc(N2CCN(Cc3ccccc3)CC2)cc1)c1ccccc1[N+](=O)[O-],inconclusive: 110%
26,O=C(O)c1ccc(N/N=C/c2cc3ccccc3nc2Cl)cc1,inconclusive: 110%
27,CC(C)c1ccc(/C=C/C(=O)O)cc1,inconclusive: 89.1%
28,COc1ccc(-n2c(SCC(=O)Nc3cccc(S(N)(=O)=O)c3)nc3ccccc3c2=O)cc1OC,inconclusive: 67.5%

row,Structure (SMILES),binding response (% of control)
1,O=C(NNc1ccccc1)C(=O)NNS(=O)(=O)c1ccc(CCCl)cc1,inconclusive: 91.8%
2,CCOC(=O)N1CCN(C(=O)Cc2c(C(=O)O)n(C)c3ccccc23)CC1,inactive: 94.8%
3,CCC1(C)Cc2c(sc3nc(SCC(=O)c4ccccc4)[nH]c(=O)c23)CO1 (stereo not given),inconclusive: 96.8%
4,CCOC(=O)c1c(C)n(-c2ccc(OC)cc2)c2ccc(O)c(CN(C)C)c12,inconclusive: 85.6%
5,COc1ccc(C(=O)CSc2nnc3n2CCCN3C(=O)Nc2ccccc2)cc1,inconclusive: 116%
6,CCC(NC(=O)c1ccccc1NC(=O)c1ccco1)C(=O)NNC(=O)c1ccncc1 (stereo not given),inconclusive: 325%
7,COc1cccc(CNC(=O)CCC2CCCN(C(=O)C3CCOCC3)C2)c1 (stereo not given),inactive: 94%
8,CC(C)C(c1nnnn1Cc1ccc(F)cc1)N1CCN(C2CCCC2)CC1 (stereo not given),inconclusive: 109%
9,COc1ccc(N=C2CC(C)(C)CC(=O)/C2=C(/O)c2ccccc2)cc1,inconclusive: 122%
10,O=C(COc1ccccc1-c1ccccc1)N/N=C/c1ccccn1,inactive: 107%
11,Cn1cc(-c2cc(C(=O)O)on2)cn1,inconclusive: 136%
12,CCOC(=O)Cn1c(O)c(N=NC(=O)OC)c2ccccc21,inconclusive: 101%
13,COc1ccc(/C=C(\NC(=O)c2ccccc2)C(=O)N/N=C/c2cccnc2)cc1,inconclusive: -31.9%
14,COc1cc(C(=O)NCC(=O)OCn2nnc3ccccc3c2=O)cc(OC)c1OC,inconclusive: 104%
15,C/C(CC(=O)Nc1ccc([N+](=O)[O-])cc1)=N/NC(=O)C1C2CCCCC21 (stereo not given),inconclusive: 81.8%
16,Cc1nc(N2CCN(c3ccccc3)CC2)[nH]c(=O)c1Cc1cccc2ccccc12,inactive: 148%
17,COc1ccccc1NS(=O)(=O)c1cc(NC(C)=O)ccc1N1CCCCC1,inconclusive: 102%
18,O=C(CN1CCN(S(=O)(=O)/C=C/c2ccccc2)CC1)Nc1ccccc1N1CCOCC1,inconclusive: 88.8%
19,O=S(=O)(c1ccccc1)c1cnc(-c2ccccc2)nc1N1CCCCC1,inconclusive: 121%
20,CC(=O)Nc1ccc(S(=O)(=O)N2CCCCC2C(=O)O)cc1 (stereo not given),inconclusive: 111%
21,Cc1cc(NC(=O)CN2C(=O)c3ccccc3C2=O)no1,inconclusive: 116%
22,O=C(O)c1ccc(-c2nc(-c3ccccc3)c(-c3cccs3)[nH]2)cc1,inconclusive: 127%
23,COc1ccc(S(=O)(=O)n2[nH]c(=O)c(CCO)c2C)c([N+](=O)[O-])c1,inactive: 102%
24,Cc1ccc(NC(=O)c2nc[nH]c2C(=O)N[C@@H](C)C(=O)OC(C)(C)C)cc1,inconclusive: 99.6%
25,COc1cccc(CNCc2cccc(Br)c2)c1OC,inconclusive: 86.7%
26,CC(=O)N1CCC[C@H]1C(=O)O,inconclusive: 88.9%
27,O=C1N/C(=N/S(=O)(=O)Cc2ccccc2)S/C1=C/c1ccc2c(c1)OCO2,inconclusive: 103%

# By substructure: the entries above with a COOH group.
row,Structure (SMILES),binding response (% of control)
6,Cc1ccccc1NC(=O)CN1C(=O)S/C(=C\c2ccc(-c3cc(C(=O)O)ccc3C)o2)C1=O,inconclusive: 106%
26,O=C(O)c1ccc(N/N=C/c2cc3ccccc3nc2Cl)cc1,inconclusive: 110%
27,CC(C)c1ccc(/C=C/C(=O)O)cc1,inconclusive: 89.1%
2,CCOC(=O)N1CCN(C(=O)Cc2c(C(=O)O)n(C)c3ccccc23)CC1,inactive: 94.8%
11,Cn1cc(-c2cc(C(=O)O)on2)cn1,inconclusive: 136%
20,CC(=O)Nc1ccc(S(=O)(=O)N2CCCCC2C(=O)O)cc1 (stereo not given),inconclusive: 111%
22,O=C(O)c1ccc(-c2nc(-c3ccccc3)c(-c3cccs3)[nH]2)cc1,inconclusive: 127%
26,CC(=O)N1CCC[C@H]1C(=O)O,inconclusive: 88.9%

# A second format for some results above:
row	Structure (SMILES)	binding response (% of control)
23	COc1ccc(S(=O)(=O)n2[nH]c(=O)c(CCO)c2C)c([N+](=O)[O-])c1	inactive: 102%
24	Cc1ccc(NC(=O)c2nc[nH]c2C(=O)N[C@@H](C)C(=O)OC(C)(C)C)cc1	inconclusive: 99.6%
